Source: publication PMC8956313, “Biological investigation of N-methyl thiosemicarbazones as antimicrobial agents and bacterial carbonic anhydrases inhibitors” (Journal of Enzyme Inhibition and Medicinal Chemistry, 2022)

What was measured:
SauβCA = target: T1, SauβCA; conditions: TRIS pH 8.30, 20 mM Na2SO4, 15 min preincubation, room temperature
T1 construct: gene SauBCA

HpαCA = target: T2, HpαCA (Helicobacter pylori, UniProt O25798); test: stopped-flow CO2 hydrase assay; type: biochemical; conditions: HEPES pH 7.40, 20 mM Na2SO4, 15 min preincubation, room temperature
T2 construct: gene HP_1186; recombinant, expressed in E. coli (DE3), purified
T2 sequence (O25798 19-202): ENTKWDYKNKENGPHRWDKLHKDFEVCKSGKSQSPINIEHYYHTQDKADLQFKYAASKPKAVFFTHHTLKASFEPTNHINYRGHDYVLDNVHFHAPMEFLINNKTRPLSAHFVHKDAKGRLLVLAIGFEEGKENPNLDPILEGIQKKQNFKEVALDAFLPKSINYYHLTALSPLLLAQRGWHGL

Ki (SauβCA): 630 nM
Ki (HpαCA): 2.1 nM
SMILES: CC(=O)Nc1nnc(S(N)(=O)=O)s1 [AAZ, acetazolamide]
